Laboratory results: PubChem BioAssay AID1347076 (National Center for Advancing Translational Sciences (NCATS), 2019)
The campaign covered roughly 400,000 compounds. About 13,000 (3.2%) were called active. This list was built around the results that the source calls inconclusive (neither active nor inactive); the mix of calls is not that of the screen. Calls follow the shape of the dose curve; as a rule, active = well fitted cell-killing curve with a large enough effect; inconclusive = small, poorly fitted or top-dose-only effect, or effect the other way; inactive = flat fitted curve, though single readings scatter. Potencies beside an inconclusive call are fits to weak or partial responses and may not hold up.
% is scaled to controls: 0 for no effect and ±100 for the full control effect; potency is read from the fitted curve at half-maximal effect.

Assay: qHTS assay for MDR1-selective chemotherapeutics: Primary screen using the drug-selected MDR subline cells KB-V1; also: nearly all actives have a fitted effect of over 60% in size
Settings: KB-V1 MDR cells viability, CellTiter-Glo, 72 h; activity change, negative = cytotoxicity: at 46.1 µM (top of the series)
Method in brief: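 Cells of the MDR subline KB-V1 are plated, dosed with compound at multiple concentrations, and incubated 72 h at 37 degrees C; CellTiter-Glo is then added and luminescence read after 10 min.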
With `CN(c1ccccc1)S(=O)(=O)c1ccc(C(=O)Nc2ncccc2O)cc1` the Potency was inconclusive: 6.51 µM [cytotoxic, partial curve, poor fit]. For `COc1ccc(Cc2nnc(SCC(=O)NC(C)c3ccccc3)o2)cc1` (centres undefined), the Potency was active: 20.6 µM. With `COc1ccc2[nH]c(C(=O)O)c(NS(=O)(=O)c3ccc(C)cc3C)c2c1` the Potency was inconclusive: 10.3 µM [rising, partial curve]. With `O=C(CO/N=C/c1ccccc1Cl)N1CCCc2ccccc21` the Potency was inconclusive: 23.1 µM [cytotoxic, partial curve, poor fit]. In the case of `CN(C)c1ccc(/C=C/c2ccnc3ccc(N)cc23)cc1`, the Potency is reported as inconclusive: 16.4 µM [cytotoxic, partial curve, poor fit]. With `CCOC(=O)Cc1csc(NC(=O)CSc2ccc(Br)cc2)n1` the Potency was inconclusive: 29.1 µM [cytotoxic, single point]. In the case of `CNc1nc(SC(C)C(=O)Nc2ccc(Cl)c(Cl)c2)nc(N2CCOCC2)n1` (centres undefined), the Potency is reported as inconclusive: 4.61 µM [cytotoxic, full curve, poor fit]. In the case of `O=C(Nc1cccc(Cl)c1)c1ccc(NCCCN2CCOCC2)c([N+](=O)[O-])c1`, the Potency is reported as inconclusive: 10.3 µM [cytotoxic, single point]. For `COc1cc(C)c2c(c1OC)C(=O)CC2`, the Potency was “inactive”. With `COc1ccc(CNC(=O)C2CCN(S(=O)(=O)c3ccc4nc5c(c(C(=O)O)c4c3)CC(C)CC5)CC2)cc1` (centres undefined) the Potency was inconclusive: 16.4 µM [rising, partial curve, poor fit]. With `O=C(CCc1ccc(S(=O)(=O)NCc2ccccc2)cc1)NCc1ccco1` the Potency was active: 20.6 µM. With `CCc1ccc(NC(=O)[C@H](NC(=O)[C@@H]2Cc3ccccc3CN2)c2ccccc2)cc1` the Potency was inconclusive: 29.1 µM [cytotoxic, single point]. In the case of `CCOC(=O)c1sc(NC(=O)CCC(=O)O)nc1C`, the Potency is reported as inconclusive: 0.731 µM [rising, full curve, poor fit]. In the case of `CCCCC(CC)COC1(c2ccccc2)OC(=O)c2ccccc21` (centres undefined), the Potency is reported as inconclusive: 18.4 µM [cytotoxic, single point]. With `CC(CC(=O)Nc1ccc2c(c1)c(=O)n(C)n2-c1cccs1)c1ccccc1` (centres undefined) the Potency was inconclusive: 29.1 µM [cytotoxic, single point]. In the case of `CCOc1ccc(N(CC)S(=O)(=O)c2cccc3nsnc23)cc1`, the Potency is reported as inconclusive: 29.1 µM [cytotoxic, single point]. In the case of `Cc1ccsc1CCN1C(=O)N(c2ccc(F)cc2)C(=O)C1CC(=O)Nc1ccccc1` (centres undefined), the Potency is reported as “inactive”. In the case of `CCc1ccc(Oc2coc3cc(OCC(=O)Nc4cc(C)ccc4C)ccc3c2=O)cc1`, the Potency is reported as inconclusive: 20.6 µM [cytotoxic, single point]. In the case of `O=C(NCc1nnc(SCc2ccccc2)n1-c1ccccc1)C12CC3CC(CC(C3)C1)C2`, the Potency is reported as inconclusive: 23.1 µM [cytotoxic, single point]. In the case of `CCc1ccc(NC(=O)c2c(C(=O)Nc3ccccc3)sc3nc(C)cc(=O)n23)cc1`, the Potency is reported as “inactive”. In the case of `C[C@@H]1CN([C@@H](C)CO)C(=O)Cc2cc(NC(=O)Nc3ccc(F)cc3)ccc2O[C@@H]1CN(C)Cc1ccc(Cl)c(Cl)c1`, the Potency is reported as inconclusive: 29.1 µM [cytotoxic, single point]. With `COc1ccccc1N1CC(C(=O)OCC(=O)c2c(N)n(C)c(=O)n(C)c2=O)CC1=O` (centres undefined) the Potency was “inactive”. For `CCc1cc2c(=O)n(CC(C)C)cnc2s1`, the Potency was inconclusive: 18.4 µM [cytotoxic, single point]. With `CCNC1(C#N)CCN(Cc2ccccc2)CC1` the Potency was inconclusive: 29.1 µM [rising, single point]. With `COc1ccc(CC(=O)Nc2ccc(C(=O)Nc3nccs3)cc2)cc1OC` the Potency was inconclusive: 29.1 µM [cytotoxic, single point]. For `COc1ccc(-n2nnnc2SCC(=O)c2ccc3c(c2)OCCO3)c(OC)c1`, the Potency was active: 9.2 µM. With `CCC(C)NC(=O)CN(c1ccc(Cl)c(Cl)c1)S(C)(=O)=O` (centres undefined) the Potency was “inactive”. In the case of `COc1cc(C(=O)NCC(=O)NNC(=O)C2COc3ccccc3O2)cc(OC)c1OC` (centres undefined), the Potency is reported as inconclusive: 18.4 µM [rising, single point]. With `CCOP(=O)(OCC)c1nc(-c2cccc3ccccc23)oc1NCc1ccccc1` the Potency was active: 9.2 µM. In the case of `COc1ccc(NC(=O)CCNS(=O)(=O)c2ccc3c(c2)CCN3C(=O)C2CC2)cc1Cl`, the Potency is reported as inconclusive: 29.1 µM [rising, single point]. With `Cn1c(COc2ccc(Cl)cc2)nnc1SCC(=O)Nc1ccc2c(c1)CCC2` the Potency was inconclusive: 29.1 µM [cytotoxic, single point]. With `CN1CCN(C(CNC(=O)Nc2ccc(Cl)cc2)c2ccc(F)cc2)CC1` (centres undefined) the Potency was inconclusive: 3.26 µM [rising, full curve]. For `COc1ccc(-c2nnc(SCC(=O)Nc3cccc(Cl)c3C)nc2-c2ccc(OC)cc2)cc1`, the Potency was “inactive”. For `CCC1=Nc2cc(C(=O)NCCCOC(C)C)ccc2Sc2ccccc21`, the Potency was inconclusive: 20.6 µM [cytotoxic, single point]. With `CN(Cc1ccccc1)C(=O)CC(c1ccccc1)c1cc(Cl)ccc1O` (centres undefined) the Potency was active: 13 µM. With `CCCCN1CN=C(Nc2nc3ccccc3o2)NC1` the Potency was inconclusive: 13 µM [cytotoxic, single point]. With `CCSc1oc(-c2ccco2)nc1S(=O)(=O)c1ccc(F)cc1` the Potency was active: 16.4 µM. With `O=C(COc1ccc(Cl)cc1)NCc1n[nH]c(=O)c2ccccc12` the Potency was “inactive”. For `C[C@H](NC(=O)c1nc[nH]c1C(=O)NCC(=O)OCc1ccccc1)c1ccccc1`, the Potency was “inactive”. For `Cc1ccc(S(=O)(=O)N2CCN(c3nc(-c4cccs4)nc4cccnc34)CC2)cc1`, the Potency was “inactive”. With `CCc1nn2c(=O)cc(COC(=O)C3CCCCC3)nc2s1` the Potency was inconclusive: 29.1 µM [rising, single point]. For `COc1ccc2cc1Oc1ccc(cc1)C[C@H]1c3c(cc(OC)c4c3Oc3c(ccc5c3[C@H](C2)N(C)CC5)O4)CCN1C`, the Potency was inconclusive: 29.1 µM [cytotoxic, single point]. With `O=C(NCCN1CCC(n2c(=O)[nH]c3ccccc32)CC1)c1ccncc1` the activity change, negative = cytotoxicity was inconclusive: -39.9%. For `Cc1cc(OCCOc2cccc3cccnc23)c(C)cc1Cl`, the Potency was inconclusive: 18.4 µM [cytotoxic, partial curve, poor fit]. With `Cc1ccc(-c2noc(CCC(=O)N(C)c3ccccc3C)n2)cc1` the Potency was active: 13 µM. In the case of `O=C(COC(=O)Cc1ccc(Br)cc1)NCC1CCCCC1`, the Potency is reported as inconclusive: 18.4 µM [rising, partial curve]. For `Cc1ccnc(SCC(=O)Nc2oc(-c3ccccc3)c(-c3ccccc3)c2C#N)n1`, the Potency was inconclusive: 9.2 µM [cytotoxic, partial curve]. In the case of `CN(C)C1=NCCN1CCc1ccc(F)cc1`, the Potency is reported as “inactive”. With `COCC(C)n1c(C)cc(C(=O)COC(=O)c2oc3ccccc3c2C)c1C` (centres undefined) the Potency was inconclusive: 20.6 µM [cytotoxic, partial curve, poor fit]. In the case of `CN(Cc1ccccc1)CC(O)COc1ccc(CNCCCOc2cccnc2)cc1` (centres undefined), the Potency is reported as inconclusive: 29.1 µM [cytotoxic, single point]. In the case of `C/C(=N\NC(=O)c1ccccn1)C12CC3CC(CC(C3)C1)C2`, the Potency is reported as “inactive”. In the case of `CSc1nsc(SCC(=O)Nc2cccc(NC(C)=O)c2)n1`, the Potency is reported as “inactive”. For `NS(=O)(=O)c1ccc(NC(=S)NNC(=O)CCC(=O)Nc2ccccc2Cl)cc1`, the Potency was “inactive”. For `CN(C)CCNC(=O)C1(O)c2cc(Br)ccc2NC(=O)N1c1ccc(Cl)cc1` (centres undefined), the Potency was inconclusive: 29.1 µM [rising, single point]. For `O=C(CCCc1ccccc1)NCc1cn2ccsc2n1`, the Potency was inconclusive: 29.1 µM [rising, single point]. With `O=C(O)CN1C(c2ccccc2)=Nc2ccc(Br)cc2C1c1ccccc1` (centres undefined) the Potency was “inactive”. With `Clc1ccc(COc2ccccn2)c(Cl)c1` the Potency was inconclusive: 18.4 µM [cytotoxic, single point]. With `CC(NC(=O)c1cc(-c2ccc3c(c2)OCO3)nc2ccccc12)C(C)(C)C` (centres undefined) the Potency was active: 16.4 µM. With `CN1C(=O)c2cccc3c(S(=O)(=O)NCCc4ccccc4)ccc1c23` the Potency was “inactive”. For `CCOC(=O)CC1=NN(c2ccccc2)C(=O)/C1=C\c1ccc(OC)cc1OC`, the Potency was “inactive”. In the case of `COC(CNC(=O)CNC(=S)N(Cc1ccccc1)Cc1cccs1)OC`, the Potency is reported as inconclusive: 18.4 µM [cytotoxic, single point]. For `COc1ccc2ccccc2c1C1NC(=O)c2ccccc2N1` (centres undefined), the Potency was active: 5.8 µM. In the case of `Cc1ccc(S(=O)(=O)N(C)C)cc1NC(=O)c1cc(C(C)(C)C)nn1Cc1ccccc1`, the Potency is reported as “inactive”. For `COc1cc(C(=O)N2CCNCC2)cc(OC)c1OC`, the Potency was inconclusive: 29.1 µM [rising, single point]. For `CCOc1ccc(C(=O)N2CCCC(c3nc(-c4ccc(C)o4)no3)C2)cc1` (centres undefined), the Potency was inconclusive: 18.4 µM [cytotoxic, single point]. With `O=C(CCN1C(=O)c2cccc3cccc(c23)C1=O)N1CCN(Cc2ccc3c(c2)OCO3)CC1` the Potency was inconclusive: 18.4 µM [cytotoxic, single point]. For `Cc1ccc(N(CC(=O)NCc2ccco2)C(=O)CNS(=O)(=O)c2ccc(F)cc2)c(C)c1`, the Potency was inconclusive: 7.31 µM [cytotoxic, partial curve]. With `CC1CCN(S(=O)(=O)c2cccc(C(=O)NC3CCCCC3)c2)CC1` the Potency was inconclusive: 14.6 µM [cytotoxic, partial curve]. In the case of `COc1ccc(OCCOc2ccc(/C=C3\C(=N)N4N=C(C)SC4=NC3=O)cc2)cc1`, the Potency is reported as inconclusive: 29.1 µM [rising, single point].
